Experimental findings from article PMC3862839, “From Knock-Out Phenotype to Three-Dimensional Structure of a Promising Antibiotic Target from Streptococcus pneumoniae” (PLoS ONE, 2013) are described below.

These are yes or no findings as the source states them, for the method shown. Some entries that bind do so weakly or less than the wild type.

Assay [1] addresses Streptococcus pneumoniae dihydrodipicolinate synthase (Streptococcus pneumoniae) (UniProt Q97R25). Description: dynamic light scattering; 59 µM Sp-DHDPS, 20°C, scattering angle 90 degrees; average hydrodynamic radius; both purified.
Assay [2] shares this target. The assay can be described thus: crystal structure; X-ray, 1.9 Å, space group P22(1)2(1), two monomers ('tight' dimer) in the asymmetric unit; the crystallographic two-fold axis generates the tetramer; both purified.

B1: Streptococcus pneumoniae dihydrodipicolinate synthase (enzyme, UniProt Q97R25 1-311, looked up)
chain: MSYQDLKKCKIITAFITPFHEDGSINFDAIPALIEHLLAHHTDGILLAGTTAESPTLTHDEELELFAAVQKVVNGRVPLIAGVGTNDTRDSIEFVKEVAEFGGFAAGLAIVPYYNKPSQEGMYQHFKTIADASDLPIIIYNIPGRVVVELTPETMLRLADHPNIIGVKECTSLANMAYLIEHKPEEFLIYTGEDGDAFHAMNLGADGVISVASHTNGDEMHEMFTAIAESDMKKAAAIQRKFIPKVNALFSYPSPAPVKAILNYMGFEAGPTRLPLVPAPEEDAKRIIKVVVDGDYEATKATVTGVLRPDY
notes: Dihydrodipicolinate synthase (DHDPS, product of dapA) of Streptococcus pneumoniae; Homotetramer (dimer of 'tight' dimers) in solution and in the crystal; also called Sp-DHDPS; sp-DHDPS
Consider B1, for which the binding result in assay [1] and in assay [2] was “binds” each time.
